Measured values taken from US20120315277A1, “Compositions and Methods for the Therapy and Diagnosis of Influenza” (priority 2011, published 2012).
No constants are given. Whether binding was seen depends on the method and setting. Some binding calls cover weakened binding; strength is not graded here.

By UniProt entry, the sequences of proteins in these tests, tags left out.
UniProt P06821: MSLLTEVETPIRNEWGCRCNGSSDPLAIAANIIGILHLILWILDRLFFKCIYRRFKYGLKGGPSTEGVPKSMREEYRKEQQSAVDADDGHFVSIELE

Experiments:
[1] = target: M2 protein of influenza A/Puerto Rico/8/34 (H1N1) on cells (influenza A virus A/Puerto Rico/8/34 (H1N1)) (UniProt P06821); test: FACS on infected MDCK cells
[2] = target: M2 protein of influenza A/Puerto Rico/8/34 (H1N1) on cells (influenza A virus A/Puerto Rico/8/34 (H1N1)) (UniProt P06821); test: FMAT on PR8-infected MDCK cells
[3] = target: M2 protein on influenza A/Puerto Rico/8/34 (H1N1) virus particles (influenza A virus A/Puerto Rico/8/34 (H1N1)) (UniProt P06821); test: ELISA on purified virus (FIG. 14a)
[4] = target: M2 protein on influenza A/Puerto Rico/8/34 (H1N1) virus particles (influenza A virus A/Puerto Rico/8/34 (H1N1)) (UniProt P06821); test: ELISA on PR8 virus, crude supernatants
[5] = target: M2 protein on influenza A/Puerto Rico/8/34 (H1N1) virus particles (influenza A virus A/Puerto Rico/8/34 (H1N1)) (UniProt P06821); test: ELISA on PR8 virus, crude supernatant
[6] = target: M2 protein of influenza A/Puerto Rico/8/34 (H1N1) on cells (influenza A virus A/Puerto Rico/8/34 (H1N1)) (UniProt P06821); test: FACS, transfected 293 cells, 1 µg/mL
[7] = target: M2 protein on influenza A/Puerto Rico/8/34 (H1N1) virus particles (influenza A virus A/Puerto Rico/8/34 (H1N1)) (UniProt P06821); test: ELISA on influenza virus, crude supernatants
[8] = target: M2 protein on influenza A/Puerto Rico/8/34 (H1N1) virus particles (influenza A virus A/Puerto Rico/8/34 (H1N1)) (UniProt P06821); test: ELISA on purified A/Puerto Rico/8/34 virus
[9] = target: M2 protein of influenza A/Puerto Rico/8/34 (H1N1) on cells (influenza A virus A/Puerto Rico/8/34 (H1N1)) (UniProt P06821); test: FACS on MDCK cells infected with A/Puerto Rico/8/34
[10] = target: M2 protein of influenza A/Puerto Rico/8/34 (H1N1) on cells (influenza A virus A/Puerto Rico/8/34 (H1N1)) (UniProt P06821); test: FACS on transfected 293 cells and on infected MDCK cells
[11] = target: M2 protein of influenza A/Puerto Rico/8/34 (H1N1) on cells (influenza A virus A/Puerto Rico/8/34 (H1N1)) (UniProt P06821); test: FACS, MDCK cells infected with A/Puerto Rico/8/34
[12] = target: M2 protein on influenza A/Puerto Rico/8/34 (H1N1) virus particles (influenza A virus A/Puerto Rico/8/34 (H1N1)) (UniProt P06821); test: ELISA, purified A/Puerto Rico/8/34 virus coated at 10 µg/ml
[13] = target: M2 protein of influenza A/Puerto Rico/8/34 (H1N1) on cells (influenza A virus A/Puerto Rico/8/34 (H1N1)) (UniProt P06821); test: FACS, transfected HEK293, 1 µg/ml [D00006 FIG. 3C-1]
[14] = target: M2 protein of influenza A/Puerto Rico/8/34 (H1N1) on cells (influenza A virus A/Puerto Rico/8/34 (H1N1)) (UniProt P06821); test: FMAT images, MDCK cells infected with A/PR/8, crude supernatant
[15] = target: M2 protein of influenza A/Puerto Rico/8/34 (H1N1) on cells (influenza A virus A/Puerto Rico/8/34 (H1N1)) (UniProt P06821); test: FMAT on MDCK cells infected with A/PR/8/32 (so in the source), crude supernatant
[16] = target: M2 protein on influenza A/Puerto Rico/8/34 (H1N1) virus particles (influenza A virus A/Puerto Rico/8/34 (H1N1)) (UniProt P06821); test: ELISA on A/PR/8 virus, normalised to 8i10 at 10 µg/ml [D00002 FIG. 2B]

Measured: binding

B1: 23K12 (antibody, V domains shown)
VH: EVQLVESGGGLVQPGGSLRISCAASGFTVSSNYMSWVRQAPGKGLEWVSVIYSGGSTYYADSVKGRFSFSRDNSKNTVFLQMNSLRAEDTAVYYCARCLSRMRGYGLDVWGQGTTVTVS
VL: DIQMTQSPSSLSASVGDRVTITCRTSQSISSYLNWYQQKPGKAPKLLIYAASSLQSGVPSRFSGSGSGTDFTLTISGLQPEDFATYYCQQSYSMPAFGQGTKLEIK
binds: all assays above
